This is an account of results in PubChem BioAssay AID2685 (National Center for Advancing Translational Sciences (NCATS), 2010).

This experiment can be described thus: qHTS Assay for Lipid Storage Modulators in Drosophila S3 Cells.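 As to cell number change: cells counted by Cell Tracker Red CMTPX staining in the red channel.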 The settings on record: BODIPY lipid droplet fluorescence, 18-24 h; for cell number change: measured here: cell count max response, cells fed with added oleic acid. The method in brief:
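Drosophila S3 cells loaded with oleic acid (400 uM, as added) and compounds at several concentrations; lipid droplets imaged by 488-nm laser-scanning cytometry, 500–530 nm intensity and object ratio to cell channel. Percent activity normalized to 20 uM Triacsin C.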

[1] abbreviates: measured here: cell number channel AC50, cells fed with added oleic acid.
Where [2] appears, read: measured here: lipid fluorescence (Fed channel) AC50, cells fed with added oleic acid.

Several values for one entry are separate records, joined by “and”; a condition that tells them apart may be missing. Equal values may be shown once. Some of the results follow. Further columns of the screen follow, without active or inactive calls. Most of these compounds were active or inconclusive in the main read-out, so they are no random draw. Words in brackets tell the shape of the fitted curve; partial curves, single points and poor fits give uncertain potencies.

As to `COc1ccc(/C(N)=N/OC(=O)c2ccc(Br)o2)cc1`, the cell number change came to 40%. Also, under setting [1], the AC50 is 23.1 µM [rising, single point].

Turning to `COc1ccccc1N(C(=O)c1ccco1)C(C(=O)NC1CCCC1)c1ccc(N2CCOCC2)cc1` (stereo unspecified), the cell number change came to 3.85%.

On to `COc1cc(/C=C/c2ccc3cccc(O)c3n2)cc(OC)c1OC`, for which the cell number change came out at 2.84%.

With `COc1ccc(N2CC(O)(c3ccc(F)cc3)[N+]3=C2CCCC3)cc1` (stereo unspecified), the cell number change is -31.9%. Besides, the AC50 under setting [1] was 7.31 µM [falling, partial curve]. In addition, the AC50 under setting [2] was 6.51 µM [falling, partial curve].

Take `CCCC[n+]1ccn(-c2nc3ccccc3nc2[N-]S(=O)(=O)c2ccccc2)c1`: the cell number change was found to be 59.9%. Further, the AC50 under setting [1] is 14.6 µM [rising, partial curve, poor fit]. For the same compound, the half-maximal activity concentration (AC50) under setting [2] is 29.1 µM [rising, single point].

In the case of `C=CCn1c(O)c(N=NC(=S)Nc2ccc(OC)cc2)c2ccccc21`, the cell number change is -59.2%. The AC50 under setting [1] is 29.1 µM [falling, single point]. The AC50 under setting [2] was 29.1 µM [falling, single point].

Consider `Cc1ccc2c(c1)cc(CN(Cc1ccc3c(c1)OCO3)C(=O)c1ccccc1)c1nnnn12`, for which the cell number change was -27.5%. The AC50 under setting [2] is 13 µM [falling, partial curve].

Turning to `Cc1ccc(NC(=O)CNC(=O)c2cccs2)c(O)c1`, the cell number change was 2.77%. Further, under setting [2], the AC50 was 18.4 µM [falling, single point].

On to `COc1ccccc1C(=O)NC(CCSC)C(=O)N1CCC(Cc2ccccc2)CC1` (stereo unspecified), for which the cell number change turned out to be 12.5%.

Take `NC(=O)c1c(NC(=O)C2COc3ccccc3O2)sc2c1CCN(Cc1ccccc1)C2` (stereo unspecified): the cell number change was 14%. Besides, the AC50 under setting [1] was 0.00517 µM [rising, full curve, poor fit]. The AC50 under setting [2] is 0.00461 µM [rising, full curve, poor fit].

Regarding `Cc1cccc(NC(=O)c2ccc(C(=O)c3ccccc3)cc2)n1`, the cell number change is -13.9%. Moreover, the AC50 under setting [2] is 1.3 µM [falling, partial curve].

With `CC(=O)Cn1ncc(Br)c(Br)c1=O`, the cell number change was -29%. The AC50 under setting [2] is 5.8 µM [falling, partial curve].

With `S=C(N/N=C/c1ccc2c(c1)OCO2)NC1CC2CCC1C2` (stereo unspecified), the cell number change was found to be 6.01%. For the same compound, the AC50 under setting [1] is 6.51 µM [falling, single point]. For the same compound, the AC50 under setting [2] was 6.51 µM [falling, single point].

Turning to `O=C(CC1C(=O)NCCN1Cc1cccc(C(F)(F)F)c1)NC1CCOCC1` (stereo unspecified), the cell number change was -6.36%.

As for `CN1/C(=C\C(=O)c2cccc([N+](=O)[O-])c2)Sc2ccccc21`, the AC50 under setting [2] is 2.06 µM [falling, partial curve].

Turning to `CCCc1cc(-c2nc(N)ncc2-c2csc(C)n2)c(O)cc1OC`, the cell number change was -7.78%.

Take `CCN1CCN(C(=O)c2cc3ccc(OC)cc3[nH]2)CC1`: the cell number change was found to be 47.9%. In addition, the AC50 under setting [1] was 2.91 µM [falling, single point]. The AC50 under setting [2] was 29.1 µM [rising, single point].

With `CCN1CCN(c2ccc(NC(=O)c3ccc4c(c3)[nH]c(=O)n4Cc3ccc(F)cc3)cc2)CC1`, the cell number change was 2.71%. Besides, the AC50 under setting [2] is 18.4 µM [rising, partial curve, poor fit].

Turning to `CCCNCC1C(Oc2ccc(Cl)cc2Cl)C(=O)N1c1cccc(C)c1C` (stereo unspecified), the cell number change was -73.7%. In addition, the concentration at half-maximal activity (AC50) under setting [1] is 23.1 µM [falling, single point]. In addition, the AC50 under setting [2] is 29.1 µM [falling, single point].

In the case of `CN(Cc1ccc(Cl)c(Cl)c1)C(=O)C1=CC=CN2CCS(=O)(=O)N=C12`, the cell number change was 6.33%. Moreover, the AC50 under setting [2] was 0.517 µM [falling, single point].

Turning to `CSC1=N/C(=C\c2ccccc2)C(=O)N1C`, the cell number change was 3.74%.

As to `CCn1cc(/C=N\NC(=O)c2cc(-c3ccccc3OC)nc3ccccc23)c(C)n1`, the cell number change was found to be 33.6%. Also, the AC50 under setting [1] is 8.2 µM [rising, partial curve]. Also, the concentration at half-maximal activity (AC50) under setting [2] is 6.51 µM [rising, partial curve].

With `CSc1nc2[nH]c3c(c2c2nnnn12)CCCC3`, the cell number change is 23.4%. Moreover, under setting [1], the AC50 was 0.411 µM [rising, full curve, poor fit]. Also, under setting [2], the AC50 is 0.0326 µM [rising, full curve, poor fit].

On to `COc1ccc(NC(=O)COc2ccc(/C=C/c3cc[n+](C)cc3)cc2OC)cc1`, for which the cell number change stood at 11.1%. The half-maximal activity concentration (AC50) under setting [2] was 0.58 µM [falling, single point].

For the compound `Cc1cc2ccccn2c1C(=O)c1ccc(Cl)cc1`, the cell number change was -24.9%. For the same compound, the concentration at half-maximal activity (AC50) under setting [2] was 18.4 µM [falling, single point].

On to `Cn1c(=NC(=O)C2=NNC(=O)CC2)sc2ccccc21`, for which the cell number change was 50.2%. Under setting [1], the AC50 was 1.16 µM [rising, full curve, poor fit].

For the compound `C/C(CCC(=O)O)=N/Nc1ccc([N+](=O)[O-])cc1[N+](=O)[O-]`, the cell number change was -24.4%.

Take `CC(C)(C)c1ccc(C(=O)NCc2nnc(SCC(=O)N3CCCc4ccccc43)n2-c2ccccc2)cc1`: the cell number change is -14.6%. Moreover, the concentration at half-maximal activity (AC50) under setting [2] was 29.1 µM [falling, single point].

Regarding `O=c1c2oc3ccccc3c2ncn1Cc1ccccc1Cl`, the cell number change was 101%. Under setting [1], the AC50 is 18.4 µM [rising, single point]. In addition, under setting [2], the AC50 was 18.4 µM [rising, partial curve].

Regarding `CCCn1c(SCC(=O)N2CCN(C(=O)c3ccco3)CC2)nc2ccccc2c1=O`, under setting [1], the AC50 is 0.82 µM [rising, full curve, poor fit].

For the compound `CC(C)C(OC(=O)c1ccco1)C(=O)NCc1ccco1` (stereo unspecified), the cell number change is -4.65%. For the same compound, the AC50 under setting [2] is 0.092 µM [falling, full curve, poor fit].

With `CCn1cc(/C=C/C(=O)Nc2c(C)nn(Cc3ccccc3C)c2C)cn1`, the cell number change came to 25.1%. Under setting [2], the AC50 was 3.66 µM [rising, partial curve].

`CCn1c(SCC(=O)NCc2ccccc2)nnc1-c1c[nH]c2ccccc12`: the cell number change was 2.58%. Besides, the AC50 under setting [2] was 18.4 µM [rising, single point].

As to `O=C(NC(=S)Nc1ccc2ncccc2c1)c1ccccc1`, the cell number change was -9.02%.

On to `CCCn1c(C(C)Nc2nc(-c3ccc(Cl)c([N+](=O)[O-])c3)cs2)nc2ccccc21` (stereo unspecified), for which the cell number change was determined as 6.47%.

In the case of `Cc1cc(NC(=O)CCC(=O)N(c2cccc(F)c2)C(C(=O)NC2CCCC2)c2ccccc2)no1` (stereo unspecified), the cell number change came out at 10.4%. The AC50 under setting [2] was 1.84 µM [rising, full curve].

As to `CCOc1ccc(C(=O)/C=C/Nc2ccc(S(=O)(=O)N=C(N)N)cc2)cc1`, the cell number change worked out at 6.39%. For the same compound, under setting [2], the AC50 was 0.731 µM [rising, full curve, poor fit].

As to `Nc1cc(N2CCCC2)ccc1[N+](=O)[O-]`, the cell number change was -13.1%. In addition, under setting [2], the AC50 was 18.4 µM [falling, single point].

Turning to `Cc1ccc2c(C)nc(Nc3nc(CSc4nnnn4-c4ccccc4)cc(=O)[nH]3)nc2c1`, the AC50 is, setting by setting: under setting [1], 0.651 µM [rising, single point]; under setting [2], 0.651 µM [rising, partial curve, poor fit].

With `S=C(Nc1ccccn1)c1ccccn1`, the cell number change was -18.1% and -10.5%. The AC50 under setting [2] was 13 µM [falling, partial curve, poor fit] and 25.9 µM [rising, single point].

On to `Cc1csc(=O)n1CCC(=O)OCC(=O)Nc1cccc(C#N)c1`, for which the cell number change is -1.36%. For the same compound, under setting [2], the AC50 was 1.16 µM [falling, full curve].

On to `COc1ccc(C(=O)CN2C(=O)NC3(CCCc4ccccc43)C2=O)cc1` (stereo unspecified), for which the cell number change turned out to be 19.7%. In addition, the AC50 under setting [1] was 3.26 µM [falling, single point].

As to `CCCCNc1c(-c2cccc(-c3ccc(OC)cc3)c2)nc2ccc(C)cn12`, the cell number change is -23.3%. The AC50 under setting [2] is 0.164 µM [rising, full curve, poor fit].

Take `O=C(NC(=S)NNC(=O)c1ccc(Cl)cc1Cl)c1cccnc1`: the AC50 under setting [1] is 0.731 µM [rising, single point].

As for `CC(C)Cc1cc(C(C)(C)C)ccc1OC(=S)N(C)C`, the cell number change came out at 45%. Moreover, under setting [1], the AC50 is 13 µM [rising, partial curve]. In addition, the concentration at half-maximal activity (AC50) under setting [2] is 13 µM [rising, partial curve].

Consider `COc1ccc(CC(=O)NNC(=O)CSc2ccc(C)cc2)cc1`, for which the AC50 by setting is: under setting [1], 6.51 µM [falling, single point]; under setting [2], 0.13 µM [falling, full curve, poor fit].

Consider `Nc1c(Cl)ncnc1N/N=C/c1ccnc2ccccc12`, for which the cell number change worked out at 8.2%. For the same compound, under setting [2], the AC50 was 1.3 µM [rising, full curve].

Consider `Cc1cc(C)c(C#N)c(SCC(=O)NC(C)(C)C)n1`, for which the cell number change came to 17.4%. Moreover, the AC50 under setting [2] was 9.2 µM [rising, partial curve, poor fit].

In the case of `O=C(Cn1c(=O)n(Cc2ccccc2)c(=O)c2ccccc21)NCc1ccco1`, the cell number change is -7.26%. For the same compound, the AC50 under setting [1] was 0.0731 µM [rising, full curve, poor fit]. The AC50 under setting [2] is 0.13 µM [rising, full curve, poor fit].

`O=C(Nc1cccc(-c2cnc3ccccc3n2)c1)C1CC(=O)N(c2ccccc2)C1` (stereo unspecified): the cell number change is 47.4%. Moreover, under setting [1], the AC50 is 29.1 µM [rising, single point]. In addition, under setting [2], the AC50 was 1.84 µM [falling, partial curve].

Turning to `CC(=O)c1ccc(S(=O)(=O)NCCc2csc(-c3cccnc3)n2)cc1`, the cell number change came to 9.07%. Under setting [2], the AC50 was 1.78 µM [rising, full curve, poor fit].

On to `CC(=O)Nc1ccc(C(=O)OCC(=O)NCc2ccc(Cl)cc2)cc1`, for which the cell number change is -19.9%. The AC50 under setting [2] is 0.461 µM [falling, single point].

For the compound `Cc1ccc(CCN2CC(C(=O)NCCCN3CCCCCC3)CC2=O)cc1` (stereo unspecified), the cell number change stood at 3.82%. Under setting [2], the AC50 was 1.3 µM [falling, full curve, poor fit].

Consider `CCc1cc2c(SCC(=O)N3CC(=O)Nc4ccccc43)ncnc2s1`, for which the cell number change was found to be 37.8%. Moreover, under setting [1], the AC50 was 8.2 µM [rising, partial curve]. For the same compound, the AC50 under setting [2] was 9.2 µM [rising, partial curve].

Turning to `Oc1ccc(N2CCN(c3ncnc4sc5c(c34)CCC5)CC2)cc1`, the cell number change was -21.4%. The AC50 under setting [2] is 20.6 µM [falling, partial curve].

On to `CCOc1ccccc1OCC(=O)Nc1ccc(N2CCOCC2)cc1N1CCOCC1`, for which the cell number change worked out at 53.4%. Besides, under setting [1], the AC50 is 14.6 µM [rising, partial curve].

As to `CCCOc1ccc(-c2nc(-c3ccc([N+](=O)[O-])cc3)cs2)cc1`, the cell number change is -11.1%. Further, under setting [2], the AC50 is 18.4 µM [falling, single point].
